The other results are listed elsewhere or left out. Most entries show no effect beyond the scatter of the controls.

Protein sequences, listed by entry. Tags and fused reporters are not part of them. Lines headed by an entry give the natural chain unless they say otherwise; changes in a name come on top.
UniProt Q9BUU2: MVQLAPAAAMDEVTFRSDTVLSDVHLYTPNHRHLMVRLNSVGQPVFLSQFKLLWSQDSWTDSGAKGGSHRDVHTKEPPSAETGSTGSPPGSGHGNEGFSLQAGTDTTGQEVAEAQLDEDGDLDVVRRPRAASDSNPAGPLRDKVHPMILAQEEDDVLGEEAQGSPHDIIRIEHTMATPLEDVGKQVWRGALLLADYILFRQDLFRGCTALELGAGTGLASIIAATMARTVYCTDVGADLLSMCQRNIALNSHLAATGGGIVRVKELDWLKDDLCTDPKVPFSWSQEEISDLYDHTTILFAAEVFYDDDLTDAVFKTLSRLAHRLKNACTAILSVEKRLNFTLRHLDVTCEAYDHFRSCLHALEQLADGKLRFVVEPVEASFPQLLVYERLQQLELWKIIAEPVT
UniProt Q9BSL1: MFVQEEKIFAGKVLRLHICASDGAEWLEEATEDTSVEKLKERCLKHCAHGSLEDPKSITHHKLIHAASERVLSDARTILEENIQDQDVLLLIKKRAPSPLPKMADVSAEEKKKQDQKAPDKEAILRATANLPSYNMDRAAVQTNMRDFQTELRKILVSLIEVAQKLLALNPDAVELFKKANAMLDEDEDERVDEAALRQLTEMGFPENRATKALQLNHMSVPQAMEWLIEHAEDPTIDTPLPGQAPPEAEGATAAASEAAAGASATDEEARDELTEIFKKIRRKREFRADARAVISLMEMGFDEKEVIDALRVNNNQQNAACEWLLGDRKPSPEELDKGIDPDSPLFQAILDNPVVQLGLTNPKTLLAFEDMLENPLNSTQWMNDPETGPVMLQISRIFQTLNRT
UniProt Q99611, whole entry: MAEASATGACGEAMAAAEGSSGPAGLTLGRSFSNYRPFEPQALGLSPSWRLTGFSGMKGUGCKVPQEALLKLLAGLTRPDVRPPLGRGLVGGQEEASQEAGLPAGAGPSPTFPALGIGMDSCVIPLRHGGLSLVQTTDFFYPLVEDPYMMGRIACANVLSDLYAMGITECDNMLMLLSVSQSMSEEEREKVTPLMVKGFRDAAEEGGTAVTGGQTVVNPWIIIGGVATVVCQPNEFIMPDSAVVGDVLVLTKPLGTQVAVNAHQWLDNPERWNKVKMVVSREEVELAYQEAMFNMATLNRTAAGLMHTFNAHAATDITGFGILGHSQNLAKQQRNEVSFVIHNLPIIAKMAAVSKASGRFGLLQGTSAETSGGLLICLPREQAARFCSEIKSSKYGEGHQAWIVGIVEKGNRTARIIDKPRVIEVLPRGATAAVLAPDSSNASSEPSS
UniProt Q9BVJ6: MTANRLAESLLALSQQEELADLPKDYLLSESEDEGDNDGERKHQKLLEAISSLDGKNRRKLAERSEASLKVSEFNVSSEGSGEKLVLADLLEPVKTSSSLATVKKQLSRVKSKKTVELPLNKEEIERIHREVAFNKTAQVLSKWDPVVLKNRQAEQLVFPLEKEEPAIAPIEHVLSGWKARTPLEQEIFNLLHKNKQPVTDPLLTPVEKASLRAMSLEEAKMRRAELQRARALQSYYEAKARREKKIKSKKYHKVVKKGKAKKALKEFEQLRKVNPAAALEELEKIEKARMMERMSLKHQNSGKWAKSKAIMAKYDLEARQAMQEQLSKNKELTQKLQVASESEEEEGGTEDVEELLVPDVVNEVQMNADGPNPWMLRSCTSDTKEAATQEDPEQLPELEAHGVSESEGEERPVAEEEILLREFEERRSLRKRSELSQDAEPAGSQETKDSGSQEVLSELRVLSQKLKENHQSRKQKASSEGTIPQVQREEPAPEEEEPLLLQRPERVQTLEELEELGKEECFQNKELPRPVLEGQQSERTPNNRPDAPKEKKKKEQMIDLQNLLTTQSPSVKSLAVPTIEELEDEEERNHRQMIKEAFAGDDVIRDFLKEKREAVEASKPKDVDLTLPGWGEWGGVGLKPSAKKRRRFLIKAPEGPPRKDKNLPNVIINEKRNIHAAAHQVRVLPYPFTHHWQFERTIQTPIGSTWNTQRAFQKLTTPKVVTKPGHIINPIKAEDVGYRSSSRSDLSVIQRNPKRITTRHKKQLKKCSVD
UniProt Q9BV19: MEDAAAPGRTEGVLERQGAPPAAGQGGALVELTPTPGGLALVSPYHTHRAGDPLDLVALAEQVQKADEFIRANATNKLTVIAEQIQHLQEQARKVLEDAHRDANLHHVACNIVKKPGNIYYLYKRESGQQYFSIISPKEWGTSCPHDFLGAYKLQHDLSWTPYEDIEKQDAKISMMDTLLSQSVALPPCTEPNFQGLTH
UniProt Q9BPX5, whole entry: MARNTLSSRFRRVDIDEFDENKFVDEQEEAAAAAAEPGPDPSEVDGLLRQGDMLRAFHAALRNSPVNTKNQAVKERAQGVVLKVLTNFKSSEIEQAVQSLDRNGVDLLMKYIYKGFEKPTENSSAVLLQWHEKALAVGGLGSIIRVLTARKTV
UniProt Q9BUN5: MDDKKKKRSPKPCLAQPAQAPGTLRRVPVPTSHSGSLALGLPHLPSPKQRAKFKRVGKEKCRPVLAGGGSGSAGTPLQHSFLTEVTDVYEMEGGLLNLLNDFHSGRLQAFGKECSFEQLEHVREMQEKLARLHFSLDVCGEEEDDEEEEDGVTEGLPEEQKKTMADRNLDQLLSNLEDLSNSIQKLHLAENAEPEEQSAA
UniProt Q9BRA0: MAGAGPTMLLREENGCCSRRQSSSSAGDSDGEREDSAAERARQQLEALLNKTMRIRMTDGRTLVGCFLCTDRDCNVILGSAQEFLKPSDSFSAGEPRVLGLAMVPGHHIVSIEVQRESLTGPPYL

Compound in the assay: CN[C@@H]1C[C@H]2O[C@@](C)([C@@H]1OC)n1c3ccccc3c3c4c(c5c6ccccc6n2c5c31)C(=O)NC4 [staurosporine]
Briefly: log2 fold change of tryptic peptide abundance, ligand vs vehicle (limited proteolysis) (log2 ratio); higher = more trypsin-susceptible (destabilized). As to conditions: ligand concentration: 20 uM; sample: K562 cleared lysate; digestion: 4 min, 22 C (HT-PELSA RT4min, Orbitrap Astral).
Turning to “UniProt Q9BUU2 (peptide sequence: AASDSNPAGPLR, peptide start residue: 130)”, the log2 fold change was -0.655.

Take “UBAC1 (peptide sequence: HCAHGSLEDPK, peptide start residue: 46) (UniProt Q9BSL1)”: the log2 fold change was 0.217.

In the case of “SEPHS2 (peptide sequence: VPQEALLK, peptide start residue: 64) (UniProt Q99611)”, the log2 fold change worked out at 0.0455.

For “UTP14A (peptide sequence: VVTKPGHIINPIK, peptide start residue: 721) (UniProt Q9BVJ6)”, the log2 fold change is 0.569.

Consider “C1orf50 (peptide sequence: KVLEDAHR, peptide start residue: 94) (UniProt Q9BV19)”, for which the log2 fold change was determined as 0.333.

Turning to “ARPC5L (peptide sequence: ERAQGVVLK, peptide start residue: 75) (UniProt Q9BPX5)”, the log2 fold change was determined as 0.221.

Consider “CCDC28B (peptide sequence: RVPVPTSHSGSLALGLPHLPSPK, peptide start residue: 26) (UniProt Q9BUN5)”, for which the log2 fold change was 0.212.

For “UniProt Q9BRA0 (peptide sequence: AGAGPTMLLR, peptide start residue: 2)”, the log2 fold change was -0.152.

The values above are taken from the supplement of paper PMC12819154, “High-throughput peptide-centric local stability assay extends protein–ligand identification to membrane proteins, tissues and bacteria” (Nature Structural & Molecular Biology, 2025).
